According to patent US20050069930A1:
No constants are given. Whether binding was seen depends on the method and setting. Some binding calls cover weakened binding; strength is not graded here.

Amino acid sequences for entries named in this document (tags omitted). A change or cut given only in a name is not applied to a line headed by its entry.
UniProt Q68DV7: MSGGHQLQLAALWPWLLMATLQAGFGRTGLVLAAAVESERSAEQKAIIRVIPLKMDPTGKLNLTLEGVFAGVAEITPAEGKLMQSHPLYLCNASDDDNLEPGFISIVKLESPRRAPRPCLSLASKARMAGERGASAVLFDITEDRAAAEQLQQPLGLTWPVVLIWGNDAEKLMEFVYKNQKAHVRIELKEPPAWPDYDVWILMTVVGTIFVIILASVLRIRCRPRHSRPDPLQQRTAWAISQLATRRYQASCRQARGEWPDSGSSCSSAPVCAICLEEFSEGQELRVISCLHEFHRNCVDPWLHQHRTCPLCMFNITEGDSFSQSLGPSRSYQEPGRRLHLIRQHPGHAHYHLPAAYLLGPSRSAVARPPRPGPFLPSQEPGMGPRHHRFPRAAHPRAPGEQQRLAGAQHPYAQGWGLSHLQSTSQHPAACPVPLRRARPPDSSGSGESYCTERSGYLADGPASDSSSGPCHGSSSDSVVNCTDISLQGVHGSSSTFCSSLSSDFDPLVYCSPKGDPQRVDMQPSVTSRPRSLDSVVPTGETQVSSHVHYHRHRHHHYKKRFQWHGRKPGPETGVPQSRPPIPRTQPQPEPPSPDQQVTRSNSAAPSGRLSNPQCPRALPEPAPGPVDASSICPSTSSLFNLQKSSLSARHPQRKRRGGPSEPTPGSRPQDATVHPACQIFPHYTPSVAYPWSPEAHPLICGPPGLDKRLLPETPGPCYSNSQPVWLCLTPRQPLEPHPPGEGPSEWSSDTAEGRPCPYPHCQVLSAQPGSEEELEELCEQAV

What was measured:
[1] = target: T1, STRIN, two-hybrid prey from pACT2 (human) (UniProt Q8WVD3); test: yeast two-hybrid (GAL4 system)
T1 sequence (looked up): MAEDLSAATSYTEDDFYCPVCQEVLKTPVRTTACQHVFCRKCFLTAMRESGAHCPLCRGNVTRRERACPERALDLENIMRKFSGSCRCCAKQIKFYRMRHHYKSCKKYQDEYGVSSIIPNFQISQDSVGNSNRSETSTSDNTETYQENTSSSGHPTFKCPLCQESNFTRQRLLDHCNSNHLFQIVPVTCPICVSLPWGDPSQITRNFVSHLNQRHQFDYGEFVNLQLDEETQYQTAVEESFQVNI

[2] = target: T2, AIP1 (atrophin-1 interacting protein 1), C-terminal region, two-hybrid prey from pACT2 (human) (UniProt Q86UL8); test: yeast two-hybrid (GAL4 system)
T2 sequence (looked up): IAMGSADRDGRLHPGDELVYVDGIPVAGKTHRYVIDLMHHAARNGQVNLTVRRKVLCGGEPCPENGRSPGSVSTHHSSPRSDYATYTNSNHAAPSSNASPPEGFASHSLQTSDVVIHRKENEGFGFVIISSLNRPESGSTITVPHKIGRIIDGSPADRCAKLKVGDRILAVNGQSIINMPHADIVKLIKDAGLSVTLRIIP

RNF43 (Ring finger protein 43), entire coding sequence, two-hybrid bait from pAS2-1 (from UniProt Q68DV7 24-783)
binding [1]: binds

B1: CXADRL1 (coxsackie and adenovirus receptor like 1), cytoplasmic region, two-hybrid bait from pAS2-1 (receptor)
chain: RSKNKEEEEEEIPNEIREDDLPPKCSSAKAFHTEISSSDNNTLTSSNAYNSRYWSNNPKVHRNTDSVSHFSDLGQSFSFHSGNANIPSIYANGTHLVPGQHKTLVVTANRGSSPQVMSRSNGSVSREPRPPHTHSYTISHATLERIGAVPVMVPAQSRAGSLV
binding [2]: binds
